No constants are given. Whether binding was seen depends on the method and setting.
Experiments:
[1] = biological target: PCDH1 EC1-4 C375S K398E (human) (UniProt Q08174); test: AUC
PCDH1 EC1-4Fc (human) = PCDH1 EC1-4Fc (human) (UniProt Q08174); test: bead aggregation assay
PCDH1 EC1-7Fc (human) = PCDH1 EC1-7Fc (human) (UniProt Q08174); test: bead aggregation assay
[2] = biological target: PCDH1 EC1-7Fc K398E (human) (UniProt Q08174); test: bead aggregation assay

Chains of the proteins cited; added tags and fusions are not shown. Lines headed by an entry give the natural chain unless they say otherwise; changes in a name come on top. A line that says so, or that is headed by a name, gives the form on record, which may keep a tag or linker.
UniProt Q08174: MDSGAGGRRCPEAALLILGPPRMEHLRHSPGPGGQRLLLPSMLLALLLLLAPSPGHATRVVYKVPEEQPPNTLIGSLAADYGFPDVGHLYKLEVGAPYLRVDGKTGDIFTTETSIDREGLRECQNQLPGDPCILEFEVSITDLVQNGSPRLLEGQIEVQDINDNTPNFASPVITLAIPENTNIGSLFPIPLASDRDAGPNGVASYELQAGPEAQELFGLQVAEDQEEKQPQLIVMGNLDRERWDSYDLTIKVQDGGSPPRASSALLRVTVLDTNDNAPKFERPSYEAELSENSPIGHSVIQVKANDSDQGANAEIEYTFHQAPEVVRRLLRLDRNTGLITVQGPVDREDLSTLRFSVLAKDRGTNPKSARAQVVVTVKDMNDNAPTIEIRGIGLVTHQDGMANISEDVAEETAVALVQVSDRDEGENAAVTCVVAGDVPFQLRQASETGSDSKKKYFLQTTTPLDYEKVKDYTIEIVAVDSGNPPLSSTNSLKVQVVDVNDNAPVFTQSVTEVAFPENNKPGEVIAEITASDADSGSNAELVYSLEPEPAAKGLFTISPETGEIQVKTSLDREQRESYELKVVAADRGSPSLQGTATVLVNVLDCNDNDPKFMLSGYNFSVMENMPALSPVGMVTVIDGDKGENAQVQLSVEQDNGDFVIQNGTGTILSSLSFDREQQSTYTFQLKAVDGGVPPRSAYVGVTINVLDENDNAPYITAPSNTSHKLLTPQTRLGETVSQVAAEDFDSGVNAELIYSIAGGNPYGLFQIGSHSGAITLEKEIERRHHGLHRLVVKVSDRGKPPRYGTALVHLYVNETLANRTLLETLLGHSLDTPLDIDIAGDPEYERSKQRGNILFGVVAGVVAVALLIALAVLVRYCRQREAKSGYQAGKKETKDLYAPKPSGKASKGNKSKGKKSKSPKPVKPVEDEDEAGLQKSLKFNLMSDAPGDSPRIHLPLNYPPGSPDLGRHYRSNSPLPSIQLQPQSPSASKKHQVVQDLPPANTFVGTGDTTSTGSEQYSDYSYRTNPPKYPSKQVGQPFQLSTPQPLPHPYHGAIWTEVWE
PCDH1 EC1-4 C375S K398E (Q08174, form named): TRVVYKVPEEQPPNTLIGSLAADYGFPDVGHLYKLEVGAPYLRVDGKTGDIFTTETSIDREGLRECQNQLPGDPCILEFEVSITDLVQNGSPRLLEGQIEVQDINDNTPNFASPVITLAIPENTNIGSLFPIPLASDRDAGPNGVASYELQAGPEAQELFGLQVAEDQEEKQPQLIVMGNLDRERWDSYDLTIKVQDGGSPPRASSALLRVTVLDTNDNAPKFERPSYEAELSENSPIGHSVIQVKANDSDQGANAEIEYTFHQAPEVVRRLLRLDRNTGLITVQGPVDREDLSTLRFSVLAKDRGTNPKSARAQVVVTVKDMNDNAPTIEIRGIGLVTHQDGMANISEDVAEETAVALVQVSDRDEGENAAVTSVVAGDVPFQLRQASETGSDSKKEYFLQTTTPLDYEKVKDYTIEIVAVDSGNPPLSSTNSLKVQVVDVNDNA
PCDH1 EC1-7Fc K398E (Q08174, form named): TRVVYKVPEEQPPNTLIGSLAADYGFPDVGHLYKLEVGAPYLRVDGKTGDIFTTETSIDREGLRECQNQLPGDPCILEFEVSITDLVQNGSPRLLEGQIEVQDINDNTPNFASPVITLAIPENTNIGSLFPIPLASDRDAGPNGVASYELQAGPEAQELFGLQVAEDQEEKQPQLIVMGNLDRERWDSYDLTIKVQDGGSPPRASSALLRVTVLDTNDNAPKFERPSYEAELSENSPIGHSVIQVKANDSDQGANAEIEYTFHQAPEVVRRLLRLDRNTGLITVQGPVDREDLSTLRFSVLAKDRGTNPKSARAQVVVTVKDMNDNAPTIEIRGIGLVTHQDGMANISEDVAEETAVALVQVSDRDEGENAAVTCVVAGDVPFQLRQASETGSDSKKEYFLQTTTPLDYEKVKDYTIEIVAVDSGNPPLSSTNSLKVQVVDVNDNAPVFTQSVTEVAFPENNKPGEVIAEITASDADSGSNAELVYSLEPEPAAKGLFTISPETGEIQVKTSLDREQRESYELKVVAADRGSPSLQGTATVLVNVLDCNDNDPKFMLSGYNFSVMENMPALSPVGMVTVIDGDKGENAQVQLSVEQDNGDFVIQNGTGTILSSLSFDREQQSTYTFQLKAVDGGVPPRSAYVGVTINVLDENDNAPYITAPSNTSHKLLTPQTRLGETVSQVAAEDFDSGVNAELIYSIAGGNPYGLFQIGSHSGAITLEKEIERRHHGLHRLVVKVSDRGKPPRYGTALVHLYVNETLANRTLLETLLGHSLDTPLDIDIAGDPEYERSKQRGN

PCDH1 EC1-4 C375S K398E (from UniProt Q08174 58-503) (domain or fragment)
binding [1]: no binding

PCDH1 EC1-4Fc (from UniProt Q08174 58-503) (Fc fusion)
binding (PCDH1 EC1-4Fc (human)): no binding (condition: with 2 mM EDTA)

PCDH1 EC1-7Fc (from UniProt Q08174 58-852) (Fc fusion)
binding (PCDH1 EC1-7Fc (human)): no binding (condition: with 2 mM EDTA)

PCDH1 EC1-7Fc K398E (from UniProt Q08174 58-852) (Fc fusion)
binding [2]: no binding
